PubChem BioAssay AID1259405 | NCATS – 2018
Shown is an unselected part of about 50,000 reagents. About 4,000 of all reagents (8%) count as active. 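Mouse siRNA library applied to hamster cells; one well for each siRNA.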 Reagents against one gene are numbered here.

- Purpose: 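Silenced genes that increase secreted GFP made by CHO cells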 (primary screen)
- System: Chinese hamster CHO-K1 ovary cells with stable secreted eGFP expression
- Knock-down reagent: single siRNA against mouse genes, 0.8 pmol siRNA per well (2 µl of 400 nM stock)
- Duration: 3 days
- Measured: 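Percent of the per-plate non-targeting control median for intracellular GFP per well by laser scanning cytometry and for cell viability by ATP luminescence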
- Direction: GFP, % of control: higher = more GFP per well, higher productivity; viability (ATP), % of control: higher = more viable cells (more ATP)
- Call rule: 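a knock-down is called active if GFP reaches 120% or more of non-targeting control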

The opening 3 entries, ahead of the listing:
Or1n1b (GeneID 258943) #1 — GFP, % of control = 68.3; viability (ATP), % of control = 74.6; Outcome = inactive
Or1n1b (GeneID 258943) #2 — GFP, % of control = 89.3; viability (ATP), % of control = 86.5; Outcome = inactive
Or1n1b (GeneID 258943) #3 — GFP, % of control = 46.2; viability (ATP), % of control = 116; Outcome = inactive

Main list, repeating the preview:
Or1n1b (GeneID 258943) #1 — GFP, % of control = 68.3; viability (ATP), % of control = 74.6; Outcome = inactive
Or1n1b (GeneID 258943) #2 — GFP, % of control = 89.3; viability (ATP), % of control = 86.5; Outcome = inactive
Or1n1b (GeneID 258943) #3 — GFP, % of control = 46.2; viability (ATP), % of control = 116; Outcome = inactive
Bace1 (GeneID 23821) #1 — GFP, % of control = 93; viability (ATP), % of control = 102; Outcome = inactive
Bace1 (GeneID 23821) #2 — GFP, % of control = 78; viability (ATP), % of control = 66.5; Outcome = inactive
Bace1 (GeneID 23821) #3 — GFP, % of control = 49.6; viability (ATP), % of control = 63.9; Outcome = inactive
Dynlt5 (GeneID 67344) #1 — GFP, % of control = 84.9; viability (ATP), % of control = 91.3; Outcome = inactive
Dynlt5 (GeneID 67344) #2 — GFP, % of control = 58.4; viability (ATP), % of control = 59.8; Outcome = inactive
Dynlt5 (GeneID 67344) #3 — GFP, % of control = 81; viability (ATP), % of control = 77.3; Outcome = inactive
G6pdx (GeneID 14381) #1 — GFP, % of control = 71.6; viability (ATP), % of control = 80.5; Outcome = inactive
G6pdx (GeneID 14381) #2 — GFP, % of control = 79.2; viability (ATP), % of control = 76.3; Outcome = inactive
G6pdx (GeneID 14381) #3 — GFP, % of control = 82.2; viability (ATP), % of control = 63.4; Outcome = inactive
Zfyve19 (GeneID 72008) #1 — GFP, % of control = 77.4; viability (ATP), % of control = 77; Outcome = inactive
Zfyve19 (GeneID 72008) #2 — GFP, % of control = 83.1; viability (ATP), % of control = 87.4; Outcome = inactive
Zfyve19 (GeneID 72008) #3 — GFP, % of control = 47.5; viability (ATP), % of control = 83.9; Outcome = inactive
Bmyc (GeneID 107771) #1 — GFP, % of control = 30.5; viability (ATP), % of control = 23.7; Outcome = inactive
Bmyc (GeneID 107771) #2 — GFP, % of control = 90; viability (ATP), % of control = 33.4; Outcome = inactive
Bmyc (GeneID 107771) #3 — GFP, % of control = 82.2; viability (ATP), % of control = 106; Outcome = inactive
Abca16 (GeneID 233810) #1 — GFP, % of control = 102; viability (ATP), % of control = 103; Outcome = inactive
Abca16 (GeneID 233810) #2 — GFP, % of control = 65.7; viability (ATP), % of control = 77.4; Outcome = inactive
Abca16 (GeneID 233810) #3 — GFP, % of control = 65.8; viability (ATP), % of control = 80; Outcome = inactive
Ung (GeneID 22256) #1 — GFP, % of control = 78.4; viability (ATP), % of control = 98.1; Outcome = inactive
Ung (GeneID 22256) #2 — GFP, % of control = 68; viability (ATP), % of control = 78; Outcome = inactive
Ung (GeneID 22256) #3 — GFP, % of control = 79.9; viability (ATP), % of control = 66.4; Outcome = inactive
Agpat2 (GeneID 67512) #1 — GFP, % of control = 86.5; viability (ATP), % of control = 76.6; Outcome = inactive
Agpat2 (GeneID 67512) #2 — GFP, % of control = 55.9; viability (ATP), % of control = 62.8; Outcome = inactive
Agpat2 (GeneID 67512) #3 — GFP, % of control = 67.4; viability (ATP), % of control = 60.5; Outcome = inactive
Slc41a1 (GeneID 98396) #1 — GFP, % of control = 108; viability (ATP), % of control = 88.5; Outcome = inactive
Slc41a1 (GeneID 98396) #2 — GFP, % of control = 49.1; viability (ATP), % of control = 43.1; Outcome = inactive
Slc41a1 (GeneID 98396) #3 — GFP, % of control = 101; viability (ATP), % of control = 73.1; Outcome = inactive
Sec61b (GeneID 66212) #1 — GFP, % of control = 92.2; viability (ATP), % of control = 85.9; Outcome = inactive
Sec61b (GeneID 66212) #2 — GFP, % of control = 48.6; viability (ATP), % of control = 65.8; Outcome = inactive
Sec61b (GeneID 66212) #3 — GFP, % of control = 53.9; viability (ATP), % of control = 64.1; Outcome = inactive
Gspt1 (GeneID 14852) #1 — GFP, % of control = 131; viability (ATP), % of control = 93; Outcome = active
Gspt1 (GeneID 14852) #2 — GFP, % of control = 96.7; viability (ATP), % of control = 75.9; Outcome = inactive
Gspt1 (GeneID 14852) #3 — GFP, % of control = 76.5; viability (ATP), % of control = 68.6; Outcome = inactive
Galntl5 (GeneID 67909) #1 — GFP, % of control = 68.3; viability (ATP), % of control = 84.6; Outcome = inactive
Galntl5 (GeneID 67909) #2 — GFP, % of control = 93.5; viability (ATP), % of control = 107; Outcome = inactive
Galntl5 (GeneID 67909) #3 — GFP, % of control = 121; viability (ATP), % of control = 119; Outcome = active
Vmn1r-ps103 (GeneID 171245) #1 — GFP, % of control = 59.4; viability (ATP), % of control = 54.2; Outcome = inactive
Vmn1r-ps103 (GeneID 171245) #2 — GFP, % of control = 71.5; viability (ATP), % of control = 64.3; Outcome = inactive
Vmn1r-ps103 (GeneID 171245) #3 — GFP, % of control = 90.1; viability (ATP), % of control = 97.1; Outcome = inactive
